Experiment in all cases: glycan array binding signal (z-score within array); higher = stronger binding
What all share (conditions): glycan notation: IUPAC condensed, linker removed

For experiment [1], the target named is Gal(b1-4)GlcNAc(b1-2)[Gal(b1-4)GlcNAc(b1-6)]Man(a1-6)[GlcNAc(b1-4)][Gal(b1-4)GlcNAc(b1-2)Man(a1-3)]Man(b1-4)GlcNAc(b1-4)GlcNAc. The method, boiled down:
(§1)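 Negative Z-scores can be read as non-binding. The Z-score is calculated within each array and then averaged across arrays of one protein sequence at different concentrations or buffers and across linkers. Arrays, 3228 in all, were curated from the Consortium for Functional Glycomics database and kept only where the protein sequence was available.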

Experiment [2] has as its target Gal(b1-4)GlcNAc(b1-2)[Gal(b1-4)GlcNAc(b1-6)]Man(a1-6)[GlcNAc(b1-4)][Gal(b1-4)GlcNAc(b1-2)[Gal(b1-4)GlcNAc(b1-4)]Man(a1-3)]Man(b1-4)GlcNAc(b1-4)[Fuc(a1-6)]GlcNAc. The method, boiled down: as §1
Experiment [3] deals with Gal(b1-4)GlcNAc(b1-3)Gal(b1-3)GalNAc. The method, boiled down:
as §1

For experiment [4], the target named is Gal(b1-4)GlcNAc(b1-3)Gal(b1-3)GlcNAc. The method, boiled down:
as §1

Experiment [5] deals with Gal(b1-4)GlcNAc(b1-3)Gal(b1-4)Glc. In short, it runs like this:
as §1

The target of experiment [6] is Gal(b1-4)GlcNAc(b1-3)Gal(b1-4)GlcNAc. In short, it runs like this: as §1
Experiment [7] deals with Gal(b1-4)GlcNAc(b1-3)Gal(b1-4)GlcNAc(b1-2)Man(a1-3)[Gal(b1-4)GlcNAc(b1-3)Gal(b1-4)GlcNAc(b1-2)Man(a1-6)]Man(b1-4)GlcNAc(b1-4)GlcNAc. In short, it runs like this:
as §1

For experiment [8], the target named is Gal(b1-4)GlcNAc(b1-3)Gal(b1-4)GlcNAc(b1-2)Man(a1-3)[Gal(b1-4)GlcNAc(b1-3)Gal(b1-4)GlcNAc(b1-2)Man(a1-6)]Man(b1-4)GlcNAc(b1-4)[Fuc(a1-6)]GlcNAc. In short, it runs like this:
as §1

Experiment [9] addresses Gal(b1-4)GlcNAc(b1-3)Gal(b1-4)GlcNAc(b1-2)[Gal(b1-4)GlcNAc(b1-3)Gal(b1-4)GlcNAc(b1-6)]Man(a1-6)[Gal(b1-4)GlcNAc(b1-3)Gal(b1-4)GlcNAc(b1-2)Man(a1-3)]Man(b1-4)GlcNAc(b1-4)GlcNAc. In short, it runs like this: as §1
The target of experiment [10] is Gal(b1-4)GlcNAc(b1-3)Gal(b1-4)GlcNAc(b1-2)[Gal(b1-4)GlcNAc(b1-3)Gal(b1-4)GlcNAc(b1-6)]Man(a1-6)[Gal(b1-4)GlcNAc(b1-3)Gal(b1-4)GlcNAc(b1-2)Man(a1-3)]Man(b1-4)GlcNAc(b1-4)[Fuc(a1-6)]GlcNAc. The method, boiled down:
as §1

Experiment [11] deals with Gal(b1-4)GlcNAc(b1-3)Gal(b1-4)GlcNAc(b1-3)Gal(b1-4)GlcNAc. The method, boiled down:
as §1

The target in experiment [12] is Gal(b1-4)GlcNAc(b1-3)Gal(b1-4)GlcNAc(b1-3)Gal(b1-4)GlcNAc(b1-2)Man(a1-3)[Gal(b1-4)GlcNAc(b1-3)Gal(b1-4)GlcNAc(b1-3)Gal(b1-4)GlcNAc(b1-2)Man(a1-6)]Man(b1-4)GlcNAc(b1-4)GlcNAc. In short, it runs like this:
as §1

The target in experiment [13] is Gal(b1-4)GlcNAc(b1-3)Gal(b1-4)GlcNAc(b1-3)Gal(b1-4)GlcNAc(b1-2)Man(a1-3)[Gal(b1-4)GlcNAc(b1-3)Gal(b1-4)GlcNAc(b1-3)Gal(b1-4)GlcNAc(b1-2)Man(a1-6)]Man(b1-4)GlcNAc(b1-4)[Fuc(a1-6)]GlcNAc. In short, it runs like this: as §1
The target in experiment [14] is Gal(b1-4)GlcNAc(b1-3)Gal(b1-4)GlcNAc(b1-3)Gal(b1-4)GlcNAc(b1-2)[Gal(b1-4)GlcNAc(b1-3)Gal(b1-4)GlcNAc(b1-3)Gal(b1-4)GlcNAc(b1-6)]Man(a1-6)[Gal(b1-4)GlcNAc(b1-3)Gal(b1-4)GlcNAc(b1-3)Gal(b1-4)GlcNAc(b1-2)Man(a1-3)]Man(b1-4)GlcNAc(b1-4)[Fuc(a1-6)]GlcNAc. In short, it runs like this: as §1
Experiment [15] addresses Gal(b1-4)GlcNAc(b1-3)Gal(b1-4)GlcNAc(b1-3)Gal(b1-4)GlcNAc(b1-3)Gal(b1-4)GlcNAc(b1-2)Man(a1-3)[Gal(b1-4)GlcNAc(b1-3)Gal(b1-4)GlcNAc(b1-3)Gal(b1-4)GlcNAc(b1-3)Gal(b1-4)GlcNAc(b1-2)Man(a1-6)]Man(b1-4)GlcNAc(b1-4)GlcNAc. In short, it runs like this: as §1
For experiment [16], the target named is Gal(b1-4)GlcNAc(b1-3)Gal(b1-4)GlcNAc(b1-3)Gal(b1-4)GlcNAc(b1-3)Gal(b1-4)GlcNAc(b1-2)Man(a1-3)[Gal(b1-4)GlcNAc(b1-3)Gal(b1-4)GlcNAc(b1-3)Gal(b1-4)GlcNAc(b1-3)Gal(b1-4)GlcNAc(b1-2)Man(a1-6)]Man(b1-4)GlcNAc(b1-4)[Fuc(a1-6)]GlcNAc. The method, boiled down: as §1
The target in experiment [17] is Gal(b1-4)GlcNAc(b1-3)Gal(b1-4)GlcNAc(b1-3)Gal(b1-4)GlcNAc(b1-3)Gal(b1-4)GlcNAc(b1-2)[Gal(b1-4)GlcNAc(b1-3)Gal(b1-4)GlcNAc(b1-3)Gal(b1-4)GlcNAc(b1-3)Gal(b1-4)GlcNAc(b1-6)]Man(a1-6)[Gal(b1-4)GlcNAc(b1-3)Gal(b1-4)GlcNAc(b1-3)Gal(b1-4)GlcNAc(b1-3)Gal(b1-4)GlcNAc(b1-2)Man(a1-3)]Man(b1-4)GlcNAc(b1-4)[Fuc(a1-6)]GlcNAc. In short, it runs like this:
as §1

In experiment [18] the target is Gal(b1-4)GlcNAc(b1-3)Gal(b1-4)GlcNAc(b1-3)Gal(b1-4)GlcNAc(b1-3)Gal(b1-4)GlcNAc(b1-3)Gal(b1-4)GlcNAc(b1-2)Man(a1-3)[Gal(b1-4)GlcNAc(b1-3)Gal(b1-4)GlcNAc(b1-3)Gal(b1-4)GlcNAc(b1-3)Gal(b1-4)GlcNAc(b1-3)Gal(b1-4)GlcNAc(b1-2)Man(a1-6)]Man(b1-4)GlcNAc(b1-4)GlcNAc. The method, boiled down: as §1
Experiment [19] concerns the target Gal(b1-4)GlcNAc(b1-3)Gal(b1-4)GlcNAc(b1-3)Gal(b1-4)GlcNAc(b1-3)Gal(b1-4)GlcNAc(b1-3)Gal(b1-4)GlcNAc(b1-2)Man(a1-3)[Gal(b1-4)GlcNAc(b1-3)Gal(b1-4)GlcNAc(b1-3)Gal(b1-4)GlcNAc(b1-3)Gal(b1-4)GlcNAc(b1-3)Gal(b1-4)GlcNAc(b1-2)Man(a1-6)]Man(b1-4)GlcNAc(b1-4)[Fuc(a1-6)]GlcNAc. The method, boiled down: as §1
For experiment [20], the target named is Gal(b1-4)GlcNAc(b1-3)Gal(b1-4)GlcNAc(b1-3)Gal(b1-4)GlcNAc(b1-3)Gal(b1-4)GlcNAc(b1-3)Gal(b1-4)GlcNAc(b1-2)[Gal(b1-4)GlcNAc(b1-3)Gal(b1-4)GlcNAc(b1-3)Gal(b1-4)GlcNAc(b1-3)Gal(b1-4)GlcNAc(b1-3)Gal(b1-4)GlcNAc(b1-6)]Man(a1-6)[Gal(b1-4)GlcNAc(b1-3)Gal(b1-4)GlcNAc(b1-3)Gal(b1-4)GlcNAc(b1-3)Gal(b1-4)GlcNAc(b1-3)Gal(b1-4)GlcNAc(b1-2)Man(a1-3)]Man(b1-4)GlcNAc(b1-4)[Fuc(a1-6)]GlcNAc. The method, boiled down:
as §1

For experiment [21], the target named is Gal(b1-4)GlcNAc(b1-3)Gal(b1-4)GlcNAc(b1-3)Gal(b1-4)GlcNAc(b1-3)Gal(b1-4)GlcNAc(b1-3)Gal(b1-4)GlcNAc(b1-3)Gal(b1-4)GlcNAc(b1-2)Man(a1-3)[Gal(b1-4)GlcNAc(b1-3)Gal(b1-4)GlcNAc(b1-3)Gal(b1-4)GlcNAc(b1-3)Gal(b1-4)GlcNAc(b1-3)Gal(b1-4)GlcNAc(b1-3)Gal(b1-4)GlcNAc(b1-2)Man(a1-6)]Man(b1-4)GlcNAc(b1-4)GlcNAc. The method, boiled down:
as §1

The target of experiment [22] is Gal(b1-4)GlcNAc(b1-3)Gal(b1-4)GlcNAc(b1-3)GalNAc. The method, boiled down:
as §1

In experiment [23] the target is Gal(b1-4)GlcNAc(b1-3)Gal(b1-4)GlcNAc(b1-3)[Gal(b1-4)GlcNAc(b1-3)Gal(b1-4)GlcNAc(b1-6)]GalNAc. The method, boiled down:
as §1

The other results are listed elsewhere or left out.

B1: CM2 (Cordyceps militaris) (protein)
chain: MEIAEQNVGKSCAIVNLIPPKEGSNIWTAKQVTIARNLPPNRGTGRHQIDWSFGPVKVTGYVDTTNWEIGVTVSIMGIDLGTVYGNLRDGVVLNVDLFLAKGQVRFYLKNGNEVWVHLSVEIRFDGKFEGDYKIITV
With B1, the “glycan array binding signal (z-score)” value in [1] was 0.26; in experiment [2], -0.752; in [3], 0.081; in experiment [4] it was 1.33; in experiment [5], -0.034; in experiment [6], -0.507. In addition, the “glycan array binding signal (z-score)” value in [7] was 1.33; in experiment [8] it was 0.545; in experiment [9], -1.47; in experiment [10], 2.29; in experiment [11], -1.69; in experiment [12] it was 0.017. Besides, the “glycan array binding signal (z-score)” value in experiment [13] is 3.05; in [14], 1.02; in experiment [15] it was 0.001; in experiment [16], 0.547; in experiment [17] it was 1.2; in [18], -0.651. Besides, the “glycan array binding signal (z-score)” value in experiment [19] is -0.351; in experiment [20] it was 0.956; in [21], 2.17; in experiment [22], 0.341; in experiment [23], 1.83.

Values taken from the supplement of paper PMC8728848.
